For this experiment, the system named is BDF1 mice, B16 melanoma ip, median survival T/C. The experiment is described as follows: NCI In Vivo Anticancer Drug Screen. Data for tumor model B16 Melanoma (intraperitoneal) in B6D2F1 (BDF1) mice. The settings on record: T/C endpoint: median survival time, higher T/C = longer survival. In a few lines: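 Vehicle-treated animals serve as the reference (C); treated animals (T) are scored for survival or tumor size after tumor transplantation.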

Setting [1] is: dose: 100.0 mg/kg/injection, schedule: Q01DX009 (ip), vehicle: Klucel (hydroxypropylcellulose) (HPC).
[2] abbreviates: dose: 200.0 mg/kg/injection, schedule: Q01DX009 (ip), vehicle: Klucel (hydroxypropylcellulose) (HPC).
Where [3] appears, read: dose: 100.0 mg/kg/injection, schedule: Q01DX009 (ip), vehicle: saline.
[4] abbreviates: dose: 400.0 mg/kg/injection, schedule: Q01DX009 (ip), vehicle: saline with Tween-80.
The mark [5] stands for this setting: dose: 80.0 micrograms/kg/injection, schedule: Q01DX009 (ip), vehicle: saline.
[6] abbreviates: dose: 160.0 micrograms/kg/injection, schedule: Q01DX009 (ip), vehicle: saline.

Each structure is given as a SMILES string. The list is a part of this screen's results and no random one: it is rich in T/C values a quarter to a half above the control, in often repeated tests (any T/C) and in doses without a T/C. Further doses and runs are listed elsewhere. T/C: endpoint of the treated group in % of that of the vehicle group. Some entries give survivors of the animals treated and no T/C: the source holds a T/C of zero for them, seemingly a mark for toxic or unscored doses. Some doses without a T/C left all or most animals alive at the check, yet need not have been tolerated: the source hardly ever lists a survival T/C far under the control, and the zero likely stands for such cases as well. Counts of survivors are from the toxicity check (mostly the fifth day) where no day follows; animals may have died later. Schedule codes are those of the source, taken here to give the interval after Q, in days (D) or hours (H), and the number of doses after X. Some entries were tested several times; their values stand side by side, smallest first. For survival time, this PubChem deposit counts one and a half times the control or more as active, and values a quarter to a half above the control carry no call in these data; other NCI protocols may use other cut-offs. Some T/C values are followed by the survivors on the day toxicity was checked, most often the fifth; where none is given, no animal had died by that day. Additions like (4×) stand for listed records that agree.

Turning to `NC(=S)N/N=C/c1ccc(C(F)(F)F)cn1`, the survivor count is 4 of 10 (dose: 30.0 mg/kg/injection, schedule: Q01DX009 (ip), vehicle: Klucel (hydroxypropylcellulose) (HPC)) and 1 of 10 (dose: 45.0 mg/kg/injection, schedule: Q01DX009 (ip), vehicle: Klucel (hydroxypropylcellulose) (HPC)).
On to `Nc1nccc2c1ncn2C1OC(CO)C(O)C1O` (stereo not drawn), for which the T/C (dose: 18.7 mg/kg/injection, schedule: Q03HX024 (ip), vehicle: saline with Tween-80) was 125 % of control [7 of 10 alive]. For the same compound, the survivor count was 9 of 10 (dose: 37.5 mg/kg/injection, schedule: Q03HX024 (ip), vehicle: saline with Tween-80); 5 of 10 and 6 of 10 (dose: 75.0 mg/kg/injection, schedule: Q03HX024 (ip), vehicle: saline with Tween-80); 3 of 10 and 4 of 10 (dose: 150.0 mg/kg/injection, schedule: Q03HX024 (ip), vehicle: saline with Tween-80).
For `Cc1cc(C)c(NC(=O)Nc2cccc3ccccc23)c(C)c1`, the survivor count under setting [1] is 9 of 10.
As to `Cc1cc(OC(=O)Nc2cccc(Cl)c2)ccc1[N+](=O)[O-]`, the survivor count under setting [2] was 9 of 10.
On to `C=CCCC(=O)CCCC(=O)O[C@@H]1[C@@H]2[C@H](CC1(C)C)[C@H](O)[C@@]13O[C@@H]1[C@H](O)[C@@]1(CO1)[C@@]23C`, for which, under “dose: 25.0 micrograms/kg/injection, schedule: Q01DX009 (ip), vehicle: Klucel (hydroxypropylcellulose) (HPC)”, the T/C is 134 % of control.
Consider `CNCC(O)c1cccc(O)c1` (stereo not drawn), for which the survivor count by setting is: (dose: 6.25 mg/kg/injection, schedule: Q01DX009 (ip), vehicle: saline) 6 of 10; under setting [3], 7 of 10; (dose: 200.0 mg/kg/injection, schedule: Q01DX009 (ip), vehicle: saline) 3 of 10; (dose: 400.0 mg/kg/injection, schedule: Q01DX009 (ip), vehicle: saline) 4 of 10.
In the case of `[N-]=C(CC(=O)c1ccccc1)c1ccccc1.[N-]=C(CC(=O)c1ccccc1)c1ccccc1.[Ni+2]`, the survivor count is on record as 10 of 10 (dose: 25.0 mg/kg/injection, schedule: Q04DX003 (ip), vehicle: Klucel (hydroxypropylcellulose) (HPC)); 10 of 10 (dose: 50.0 mg/kg/injection, schedule: Q04DX003 (ip), vehicle: Klucel (hydroxypropylcellulose) (HPC)); 10 of 10 (dose: 100.0 mg/kg/injection, schedule: Q04DX003 (ip), vehicle: Klucel (hydroxypropylcellulose) (HPC)).
As to `O=c1c(O)c(-c2ccc(O)c(O)c2)oc2cc(O)cc(O)c12`, the survivor count reads like this: (dose: 400.0 mg/kg/injection, schedule: Q02DX009 (ip), vehicle: saline with Tween-80) 10 of 10; (dose: 800.0 mg/kg/injection, schedule: Q02DX009 (ip), vehicle: saline with Tween-80) 7 of 10; (dose: 1600.0 mg/kg/injection, schedule: Q02DX009 (ip), vehicle: saline with Tween-80) 1 of 10.
Consider `CCCCC(CC)COP(=O)(CC(CC)CCCC)OCC(CC)CCCC` (stereo not drawn), for which the T/C (dose: 12.5 mg/kg/injection, schedule: Q04DX003 (ip), vehicle: saline) is 126 % of control.
As to `CN1CCN(CCNc2ccc(CO)c3sc4ccccc4c(=O)c23)CC1`, the survivor count is, setting by setting: under setting [1], 10 of 10; (dose: 150.0 mg/kg/injection, schedule: Q01DX009 (ip), vehicle: Klucel (hydroxypropylcellulose) (HPC)) 10 of 10.
For the compound `C=C(C)[C@@H]1CC[C@@H]2C(=CC[C@]3(C)C([C@H](C)CC/C=C(/C)C(=O)O)CC[C@@]23C)[C@@]1(C)CCC(=O)O` (stereo partly drawn), under “dose: 90.0 mg/kg/injection, schedule: Q01DX009 (ip), vehicle: saline + alcohol”, the survivor count was 10 of 10.
With `O=Cc1ccc(C(Cl)(Cl)Cl)cc1`, the survivor count under setting [4] is 3 of 10 and 9 of 10.
Turning to `COc1ccc2c(c1O)-c1cccc3c1[C@@H](C2)N(CCCl)CC3`, the survivor count (dose: 32.0 mg/kg/injection, schedule: Q01DX009 (ip), vehicle: saline) was 2 of 10 and 10 of 10; the survivor count (dose: 64.0 mg/kg/injection, schedule: Q01DX009 (ip), vehicle: saline) is 0 of 10 and 1 of 10.
With `CC(=O)n1cc(F)c(=O)[nH]c1=O`, the survivor count is on record as 10 of 10 (dose: 40.0 mg/kg/injection, schedule: Q01DX009 (ip), vehicle: Klucel (hydroxypropylcellulose) (HPC)) and 10 of 10 (dose: 60.0 mg/kg/injection, schedule: Q01DX009 (ip), vehicle: Klucel (hydroxypropylcellulose) (HPC)).
Turning to `CN(C)CCCNc1c2ccccc2nc2cccc([N+](=O)[O-])c12`, the T/C reads like this: (dose: 10.0 micrograms/kg/injection, schedule: Q01DX009 (ip), vehicle: saline) 95, 96, 100 [9 of 10 alive] (2×), 103, 112, 113, 119 % of control; (dose: 20.0 micrograms/kg/injection, schedule: Q01DX009 (ip), vehicle: saline) 90, 94 [9 of 10 alive], 95, 96, 101, 108, 111, 137 % of control; (dose: 40.0 micrograms/kg/injection, schedule: Q01DX009 (ip), vehicle: saline) 90 [9 of 10 alive], 98, 99, 101, 101 [9 of 10 alive], 109, 110, 124 % of control; under setting [5], 90, 93, 96 (2×), 97, 100, 125 % of control; under setting [6], 109 % of control. Besides, the survivor count is listed as 9 of 10 under setting [5]; 8 of 10, 9 of 10, 10 of 10 under setting [6]; 10 of 10 (dose: 250.0 micrograms/kg/injection, schedule: Q01DX009 (ip), vehicle: saline); 10 of 10 (dose: 500.0 micrograms/kg/injection, schedule: Q01DX009 (ip), vehicle: saline); 10 of 10 (dose: 1000.0 micrograms/kg/injection, schedule: Q01DX009 (ip), vehicle: saline).
With `CCCCCOC(CN)C(Cl)(Cl)Cl` (stereo not drawn), the survivor count under setting [3] is given as 10 of 10.
Regarding `CC(C)C[NH-].CC(C)C[NH-].O.O.[Cl][Pt+2][Cl]`, for the setting “dose: 20.0 mg/kg/injection, schedule: Q01DX009 (ip), vehicle: other”, the T/C is 146 % of control.
Turning to `C1OC1CN1CCN(CC2CO2)CC1` (stereo not drawn), the T/C (dose: 32.0 mg/kg/injection, schedule: Q01DX009 (ip), vehicle: saline with Tween-80) is 135 % of control. Further, the survivor count is 6 of 6 (dose: 64.0 mg/kg/injection, schedule: Q01DX009 (ip), vehicle: saline with Tween-80) and 6 of 6 (dose: 128.0 mg/kg/injection, schedule: Q01DX009 (ip), vehicle: saline with Tween-80).
Turning to `Nc1ccnc(=O)[nH]1`, under “dose: 256.0 mg/kg/injection, schedule: Q01DX009 (ip), vehicle: saline with Tween-80”, the T/C is 126 % of control.
As to `CC(O)C(=O)[O][Hg][c]1ccccc1` (stereo not drawn), the survivor count (dose: 10.0 mg/kg/injection, schedule: Q01DX009 (ip), vehicle: saline with Tween-80) was 9 of 10.
Consider `Cc1ccc(NC(=O)Nc2cccc(C(F)(F)F)c2)cc1NC(=O)Nc1cccc(C(F)(F)F)c1`, for which the survivor count (dose: 100.0 mg/kg/injection, schedule: Q01DX009 (ip), vehicle: saline with Tween-80) is on record as 10 of 10; the survivor count (dose: 200.0 mg/kg/injection, schedule: Q01DX009 (ip), vehicle: saline with Tween-80) is recorded as 10 of 10; the survivor count under setting [4] was 10 of 10.
For `N=C(N)NC(=N)Nc1ccc(NC(=O)Nc2ccc(Nc3c4ccccc4nc4cc([N+](=O)[O-])ccc34)cc2)cc1`, the survivor count (dose: 12.5 mg/kg/injection, schedule: Q04DX003 (ip), vehicle: water) is 10 of 10; the survivor count (dose: 25.0 mg/kg/injection, schedule: Q01DX009 (ip), vehicle: water) was 10 of 10; the survivor count (dose: 25.0 mg/kg/injection, schedule: Q04DX003 (ip), vehicle: water) is listed as 10 of 10; the survivor count (dose: 50.0 mg/kg/injection, schedule: Q04DX003 (ip), vehicle: water) is 10 of 10; the survivor count (dose: 100.0 mg/kg/injection, schedule: Q04DX003 (ip), vehicle: water) is given as 9 of 10; the survivor count (dose: 200.0 mg/kg/injection, schedule: Q04DX003 (ip), vehicle: water) was 8 of 10.
For `N#CC(c1ccccc1)N1CCCCC1` (stereo not drawn), under setting [2], the survivor count is listed as 9 of 10.
As to `COc1ccc(C(C#N)N2CCOCC2)cc1` (stereo not drawn), the survivor count by setting is: under setting [1], 10 of 10; under setting [2], 1 of 10; (dose: 200.0 mg/kg/injection, schedule: Q04DX003 (ip), vehicle: Klucel (hydroxypropylcellulose) (HPC)) 7 of 10.

The record behind these values is PubChem BioAssay AID192 (DTP/NCI, 2004).
